Values are relative to the signal before dosing, not to a vehicle control; the signal also falls without drug.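 Fibroblast labels name human fibroblasts: mostly primary ones from tissues such as uterus (C12385, HUF), lung (H6013), bone (Hs27A), adrenal (HADF) and skin (WS1), plus mammary HMF and breast cancer-associated Hs343T. The cancer cells are basal-like or mesenchymal-like triple-negative breast cancer lines. The paper calls a changed response a hit when it shifts by more than 3x the replicate standard deviation. The tissue of the other fibroblasts is not given here.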
Tested on: MDAMB468
Test: relative JC-1 red fluorescence (viability) vs pre-drug, coculture with fibroblast (fraction); higher = more viable cancer cells
Conditions: 1 µM
Description: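 JC-1 labelled TNBC cells cocultured 1:1 (1,500 cells each) with CellTrace Violet stained primary or stromal fibroblasts in 384-well plates in FluoroBrite medium, treated with one of 42 anticancer drugs at 0.1, 1, 10 or 100 uM. JC-1 red fluorescence (mitochondrial integrity in cancer cells only) was read by plate reader every 8 h for 72 h. Values are normalised to each well's pre-drug value. The stock of one drug was tenfold lower, so its dose labels may be too high.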

CC(C)C[C@H](NC(=O)[C@@H](COC(C)(C)C)NC(=O)[C@H](Cc1ccc(O)cc1)NC(=O)[C@H](CO)NC(=O)[C@H](Cc1c[nH]c2ccccc12)NC(=O)[C@H](Cc1cnc[nH]1)NC(=O)[C@@H]1CCC(=O)N1)C(=O)N[C@@H](CCCNC(=N)N)C(=O)N1CCC[C@H]1C(=O)NNC(N)=O [Goserelin]
relative JC-1 red fluorescence
Conditions	8 h	16 h	24 h	32 h	40 h	48 h	56 h	64 h	72 h
coculture fibroblast: C12385	0.858	0.817	0.759	0.684	0.648	0.643	0.601	0.576	0.565
coculture fibroblast: H6013	0.8904	0.833	0.824	0.825	0.804	0.816	0.79	0.784	0.73
coculture fibroblast: H6019	0.844	0.797	0.773	0.7375	0.7106	0.6995	0.65732	0.6246	0.5946
coculture fibroblast: H6076	0.937	0.943	0.897	0.917	0.85	0.854	0.826	0.824	0.888
coculture fibroblast: H6231	0.839	0.88383	0.826	0.794	0.732	0.714	0.669	0.644	0.629
coculture fibroblast: HADF	0.917	0.843	0.816	0.816	0.78	0.76	0.721	0.71	0.663
coculture fibroblast: HCFa	0.88898	0.8189	0.78	0.756	0.704	0.701	0.642	0.614	0.55
coculture fibroblast: HCPF	0.883	0.924	0.814	0.822	0.748	0.734	0.691	0.687	0.679
coculture fibroblast: HHSteC	0.951	0.914	0.866	0.841	0.794	0.797	0.731	0.706	0.65
coculture fibroblast: HMF	0.856	0.933	0.881	0.853	0.792	0.775	0.716	0.702	0.68
coculture fibroblast: HPFa	0.9505	0.9432	0.879	0.825	0.799	0.796	0.73	0.693	0.598
coculture fibroblast: HUF	0.896	0.784	0.733	0.673	0.628	0.5959	0.553	0.527	0.498
coculture fibroblast: Hs5	0.955	0.948	0.918	0.896	0.835	0.804	0.7757	0.746	0.771
coculture fibroblast: Hs27A	0.8524	0.778	0.76	0.773	0.72	0.708	0.667	0.64	0.588
coculture fibroblast: Hs343T	0.8765	0.948	0.885	0.89	0.815	0.804	0.754	0.743	0.725
coculture fibroblast: WS1	0.8702	0.794	0.733	0.686	0.659	0.633	0.602	0.577	0.574
